The values that follow come from article PMC5996148.

Several values for one entry are separate records, joined by “and”; a condition that tells them apart may be missing. Equal values may be shown once. The list shows a part of the results.

Experiment in all cases: protein microarray (ProtoArray v5.0), streptavidin-Alexa Fluor 647
Holding throughout (conditions): 3'-biotin; 20 mM Tris (pH 7.5), 5 mM MgCl2, 100 mM KCl, 0.1% Tween-20, A/T-rich and random oligonucleotide blockers; temperature not stated; high values mean tight binding

The test system of test [1] is Mannose-6-phosphate receptor-binding protein 1 (human).
Test [2] deals with Mediator of RNA polymerase II transcription subunit 22 (human).
The subject of test [3] is Mediator of RNA polymerase II transcription subunit 23 (human).
In test [4] the test system is Mediator of RNA polymerase II transcription subunit 4 (human).
For test [5], the system named is Melanocortin-2 receptor accessory protein (human).
Test [6] has as its system Melanoma-associated antigen 3 (human).
The subject of the next test is Melanoregulin (human).
Test [7] relates to Membrane-associated progesterone receptor component 2 (human).
For test [8], the system named is Mesoderm induction early response protein 2 (human).
Test [9] has as its system Metal transporter CNNM3 (human).

Consider “GGGAGGCTGAGGCAGG [G4-1 biotinylated (PQS2)]”, for which the binding signal in test [1] is -0.377 z-score; in test [2], -0.359 z-score; in test [3] it was -0.292 z-score; in [4] it was -0.325 z-score; in [5], -0.352 z-score; in [6], -0.37 z-score. Moreover, the binding signal in the test on Melanoregulin (human) was -0.343 z-score and -0.336 z-score; in test [7] it was -0.33 z-score; in test [8], -0.316 z-score; in test [9], -0.327 z-score.
